{"source": "paper PMC9848300", "about": "“Discovery of novel enasidenib analogues targeting inhibition of mutant isocitrate dehydrogenase 2 as antileukaemic agents” (Journal of Enzyme Inhibition and Medicinal Chemistry, 2023)", "assay": "in vitro", "details": "human"}
{"smiles": "CN[C@@H]1C[C@H]2O[C@@](C)([C@@H]1OC)n1c3ccccc3c3c4c(c5c6ccccc6n2c5c31)C(=O)NC4", "note": "[Staurosporine, reference compound]", "values": [{"measurement": "IC50", "result": "35.3 ± 1.93", "unit": "µM"}]}
